Results published in US20120003156A1, “METHODS FOR TREATING NEOPLASIA BY INHIBITING LACTATE DEHYDROGENASE AND/OR NICOTINAMIDE PHOSPHORIBOSYLTRANSFERASE” (The Johns Hopkins University, priority 2008, published 2012).
At least one compound was matched to its structure with a doubt left.

System: P493 human lymphoma B cells
Assay: Human P493 B cell lymphoma xenograft
Format: in vivo, SCID mice
Conditions: daily IP; 42 μg FX11 or 0.8 mg doxycycline; vs vehicle 2% DMSO
Method: The animal studies were performed according to the protocols approved by the Animal Care and Use Committee at Johns Hopkins University. In order to generate tumorigenesis study in xenograft model, 2.0×10^7 P493 human lymphoma B cells or 5×10^6 human pancreatic cancer cells were injected subcutaneously into male SCID mice (NCI) or athymic Hsd: RH-Foxn1nu mice (Harlan), respectively, as previously described (Feldmann et al., 2007; Gao et al., 2009; Gao et al., 2007). When the tumor volume reached 200 mm^3, groups of 5 mice were injected with control 2% DMSO or 42 μg FX11 and/or 100 μg FK866. The tumor volumes were measured using a digital caliper after 4, 7 and 10 days of treatment. Tumor volumes were calculated using the following formula: [length (mm)×width (mm)×width (mm)×0.52]. The entire experiment was repeated seven times.

## C[C@H]1c2cccc(O)c2C(=O)C2=C(O)[C@]3(O)C(=O)C(C(N)=O)=C(O)[C@@H](N(C)C)[C@@H]3[C@@H](O)[C@@H]21 [doxycycline]
  tumor growth of palpable P493 xenografts: profoundly inhibited tumorigenesis
